Taken from: PubChem BioAssay AID1259254 (NCATS, 2017)
The whole screen tested about 59,000 reagents; this is an unselected part. About 1,550 of all reagents (2.6%) were called active. 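G2 share is only a proxy for re-replication; each gene was hit by three separate siRNAs, and active genes were retested.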 Raw values are not corrected between plates. The numbers tell different reagents against one gene apart. Reagent sequences are not shown. Not given: the amount of reagent.

Aim: 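Gene knock-downs that lead to re-replication, shown by excess G2 DNA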 (primary screen)
Cells: human HCT116 colorectal cancer cells
Reagent: single siRNA against human genes
Timing: 3 days
Measurement: 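Imaged Hoechst DNA stain sorts each cell into a cycle phase by DNA amount; per plate, G2 fraction set to 0% for non-targeting and 100% for GMNN siRNA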
Direction: G2 robust z-score and G2 cells, % of GMNN control: higher = more G2 cells, more excess DNA replication; raw share of cells in G2: higher = larger share of cells with G2 DNA content
Call rule: 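An siRNA counts as active if its G2 robust z-score lies at least 5 MADs above the screen median; here such calls match roughly 38% of GMNN control or more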

| target | reagent | G2 robust z-score | G2 cells, % of GMNN control | raw share of cells in G2 (%) | Outcome |
| --- | --- | --- | --- | --- | --- |
| LINC00207 (long independently transcribed non-coding RNA 207) | 1 | -0.245 | 1.24 | 4.2 | inactive |
| LINC00207 (long independently transcribed non-coding RNA 207) | 2 | 1.59 | 14.2 | 9.58 | inactive |
| LINC00207 (long independently transcribed non-coding RNA 207) | 3 | 1.62 | 14.4 | 10.8 | inactive |
| MTHFD2L | 1 | 0.525 | 6.66 | 6.19 | inactive |
| MTHFD2L | 2 | 0.175 | 4.2 | 5.01 | inactive |
| MTHFD2L | 3 | -1.08 | -4.64 | 1.54 | inactive |
| IFT172 (intraflagellar transport 172) | 1 | 2.69 | 21.9 | 12.6 | inactive |
| IFT172 (intraflagellar transport 172) | 2 | 1.72 | 15 | 10.5 | inactive |
| IFT172 (intraflagellar transport 172) | 3 | 0.797 | 8.57 | 6.29 | inactive |
| TAS2R41 (taste 2 receptor member 41) | 1 | -0.107 | 2.21 | 3.94 | inactive |
| TAS2R41 (taste 2 receptor member 41) | 2 | 1.03 | 10.2 | 7.35 | inactive |
| TAS2R41 (taste 2 receptor member 41) | 3 | 0.283 | 4.96 | 4.96 | inactive |
| SDR39U1 (short chain dehydrogenase/reductase family 39U member 1) | 1 | 2.06 | 17.5 | 11.2 | inactive |
| SDR39U1 (short chain dehydrogenase/reductase family 39U member 1) | 2 | 0.271 | 4.87 | 6.79 | inactive |
| SDR39U1 (short chain dehydrogenase/reductase family 39U member 1) | 3 | -0.421 | 0.0088 | 3.03 | inactive |
| SHANK1 (SH3 and multiple ankyrin repeat domains 1) | 1 | -0.907 | -3.42 | 2.55 | inactive |
| SHANK1 (SH3 and multiple ankyrin repeat domains 1) | 2 | -0.89 | -3.29 | 3.3 | inactive |
| SHANK1 (SH3 and multiple ankyrin repeat domains 1) | 3 | -0.799 | -2.66 | 2.42 | inactive |
| RAB40AL (RAB40A like) | 1 | -0.532 | -0.779 | 3.36 | inactive |
| RAB40AL (RAB40A like) | 2 | -0.247 | 1.23 | 3.52 | inactive |
| RAB40AL (RAB40A like) | 3 | -0.432 | -0.0725 | 3.24 | inactive |
| CAPN9 (calpain 9) | 1 | 0.394 | 5.74 | 7.56 | inactive |
| CAPN9 (calpain 9) | 2 | 0.423 | 5.95 | 7.01 | inactive |
| CAPN9 (calpain 9) | 3 | -0.918 | -3.49 | 2.61 | inactive |
| PLEKHA7 (pleckstrin homology domain containing A7) | 1 | 0.243 | 4.68 | 5.4 | inactive |
| PLEKHA7 (pleckstrin homology domain containing A7) | 2 | 0.621 | 7.34 | 5.18 | inactive |
| PLEKHA7 (pleckstrin homology domain containing A7) | 3 | -0.893 | -3.32 | 1.91 | inactive |
| ZNF250 (zinc finger protein 250) | 1 | 3.72 | 29.2 | 13.1 | inactive |
| ZNF250 (zinc finger protein 250) | 2 | -1.18 | -5.3 | 3.51 | inactive |
| ZNF250 (zinc finger protein 250) | 3 | 0.684 | 7.78 | 6.08 | inactive |
| LMOD3 (leiomodin 3) | 1 | 0.34 | 5.36 | 6.46 | inactive |
| LMOD3 (leiomodin 3) | 2 | 1.35 | 12.5 | 10.4 | inactive |
| LMOD3 (leiomodin 3) | 3 | -0.309 | 0.793 | 3.28 | inactive |
| RPGRIP1L (RPGRIP1 like) | 1 | 0.0633 | 3.41 | 5.7 | inactive |
| RPGRIP1L (RPGRIP1 like) | 2 | -0.334 | 0.618 | 4.21 | inactive |
| RPGRIP1L (RPGRIP1 like) | 3 | 0.935 | 9.54 | 6.63 | inactive |
| PCDHGA9 (protocadherin gamma subfamily A, 9) | 1 | -1.37 | -6.68 | 3.5 | inactive |
| PCDHGA9 (protocadherin gamma subfamily A, 9) | 2 | 1.61 | 14.3 | 9.55 | inactive |
| PCDHGA9 (protocadherin gamma subfamily A, 9) | 3 | 0.47 | 6.28 | 6.95 | inactive |
| TMEM139 (transmembrane protein 139) | 1 | 1.06 | 10.4 | 8.1 | inactive |
| TMEM139 (transmembrane protein 139) | 2 | -0.646 | -1.58 | 2.6 | inactive |
| TMEM139 (transmembrane protein 139) | 3 | -0.416 | 0.0404 | 2.59 | inactive |
| PSG8 (pregnancy specific beta-1-glycoprotein 8) | 1 | 5.83 | 44 | 20.6 | active |
| PSG8 (pregnancy specific beta-1-glycoprotein 8) | 2 | 1.24 | 11.7 | 7.85 | inactive |
| PSG8 (pregnancy specific beta-1-glycoprotein 8) | 3 | -0.607 | -1.3 | 2.68 | inactive |
| LARP1B (La ribonucleoprotein 1B) | 1 | -0.896 | -3.34 | 3.24 | inactive |
| LARP1B (La ribonucleoprotein 1B) | 2 | -0.445 | -0.163 | 4.07 | inactive |
| LARP1B (La ribonucleoprotein 1B) | 3 | 0.575 | 7.01 | 5.37 | inactive |

Copied from above (8 entries):
| target | reagent | G2 robust z-score | G2 cells, % of GMNN control | raw share of cells in G2 (%) | Outcome |
| --- | --- | --- | --- | --- | --- |
| TMEM139 (transmembrane protein 139) | 1 | 1.06 | 10.4 | 8.1 | inactive |
| TMEM139 (transmembrane protein 139) | 2 | -0.646 | -1.58 | 2.6 | inactive |
| TMEM139 (transmembrane protein 139) | 3 | -0.416 | 0.0404 | 2.59 | inactive |
| PSG8 (pregnancy specific beta-1-glycoprotein 8) | 1 | 5.83 | 44 | 20.6 | active |
| PSG8 (pregnancy specific beta-1-glycoprotein 8) | 2 | 1.24 | 11.7 | 7.85 | inactive |
| PSG8 (pregnancy specific beta-1-glycoprotein 8) | 3 | -0.607 | -1.3 | 2.68 | inactive |
| LARP1B (La ribonucleoprotein 1B) | 1 | -0.896 | -3.34 | 3.24 | inactive |
| LARP1B (La ribonucleoprotein 1B) | 2 | -0.445 | -0.163 | 4.07 | inactive |
